# PubChem BioAssay AID652243 | Drosophila RNAi Screening Center – 2013
# Purpose: 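Fly genes required for human androgen receptor driven transcription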 (primary screen)
# System: Drosophila S2R+ cells
# Reagents: long dsRNA against Drosophila genes
# Timing: 72 h (48 h, then 24 h hormone)
# Conditions: synthetic androgen R1881 at 10 nM for 24 h
# Measured: 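Firefly light from an androgen-responsive reporter and Renilla control light per well, raw and unnormalised, for each of two replicates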
# Direction: firefly reporter light: higher = more light from androgen-responsive reporter; Renilla control light: higher = more constitutive control signal (cell number, transfection)
# Active means: 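Hit when the log firefly-to-Renilla ratio dropped or increased by a fixed fold versus the mean of GFP or LacZ controls across duplicate plates; lowering cut given as 1.5 and as 3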
# Calls: active = hit: reporter lowered or raised; inactive = no hit
# The deposit covers about 24,000 reagents; below is a random part of those that have a named target and a result. Over the whole deposit, 246 (1%) are marked active. 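Plates not normalised; calls are printed but the firefly/Renilla ratio behind them is not deposited; fold cut for lowering reported inconsistently.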 Raw values vary from plate to plate and are shown uncorrected. Names joined by + are all predicted targets of the reagent. Not given: the amount of reagent.
gene,DRSC id,"firefly reporter light, replicate 1","firefly reporter light, replicate 2","Renilla control light, replicate 1","Renilla control light, replicate 2",Outcome
CG14615,DRSC20627,49579,98914,2.14e5,1.37e5,inactive
r + CG13012,DRSC19531,6.13e5,5.16e5,2.36e6,2.13e6,inactive
dmrt11E,DRSC19715,9.39e5,1.08e6,1.32e6,1.27e6,inactive
dmrt11E,DRSC23784,5.50e5,4.39e5,5.05e5,5.03e5,inactive
bond,DRSC16135,46140,69531,4.94e5,5.01e5,inactive
bond,DRSC23724,7.97e5,7.01e5,8.98e5,9.36e5,inactive
narya,DRSC19439,96361,1.61e5,9.38e5,1.18e6,inactive
Vkor,DRSC37855,7.19e5,8.87e5,2.15e6,2.10e6,inactive
MAN1,DRSC04342,7.89e5,2.12e5,1.71e6,5.53e5,inactive
Nup93-1,DRSC19344,32334,40278,1.92e5,2.47e5,inactive
CG5787,DRSC02895,9.80e5,7.60e5,1.55e6,1.80e6,inactive
CG5787,DRSC28731,5.19e5,7.70e5,1.43e6,1.41e6,inactive
EMC8-9,DRSC04380,5.29e5,4.27e5,1.08e6,8.80e5,inactive
Atet,DRSC00263,92503,94009,8.47e5,6.10e5,inactive
CG42367,DRSC21388,6.46e5,6.40e5,2.49e6,1.88e6,inactive
CG42367,DRSC24728,6.20e5,5.15e5,4.79e5,5.56e5,inactive
CG14926,DRSC02409,4.56e5,3.68e5,2.86e6,1.80e6,inactive
hiw,DRSC20338,1.01e5,1.22e5,1.36e6,1.60e6,active
hiw,DRSC20339,1.15e5,1.03e5,3.39e6,3.01e6,active
hiw,DRSC23634,5.08e5,4.19e5,6.16e5,4.84e5,inactive
gce,DRSC19613,3.22e5,4.40e5,3.23e6,4.25e6,inactive
gce,DRSC19974,2.94e5,2.79e5,1.79e6,1.78e6,inactive
gce,DRSC23808,1.45e6,9.79e5,6.05e5,5.36e5,inactive
gce,DRSC25266,6.74e5,3.16e5,6.04e5,5.73e5,inactive
Cyp4p3,DRSC07374,3.05e5,2.19e5,2.42e6,1.69e6,inactive
Cyp4p3,DRSC26733,4.21e5,4.09e5,5.47e5,6.04e5,inactive
ninaB,DRSC16807,1.89e5,1.88e5,3.88e6,3.50e6,inactive
ninaB,DRSC27875,6.35e5,5.64e5,1.90e6,1.21e6,inactive
CG13041,DRSC09922,2.57e5,2.68e5,2.75e6,1.91e6,inactive
CG13041,DRSC26793,3.87e5,3.73e5,5.40e5,4.65e5,inactive
kn,DRSC06196,55099,66959,1.23e6,1.23e6,inactive
kn,DRSC07637,64206,97192,1.49e6,1.49e6,inactive
kn,DRSC21533,6.58e5,6.83e5,3.09e6,2.30e6,inactive
kn,DRSC23818,8.97e5,8.36e5,8.04e5,1.14e6,inactive
asRNA:CR43469 + Balat,DRSC06852,1.25e6,1.20e6,1.96e6,1.90e6,inactive
Tsp42A,DRSC04862,2.70e5,2.79e5,2.39e6,2.12e6,inactive
CG13364,DRSC17898,1.69e5,1.66e5,2.05e6,1.80e6,inactive
CG13364,DRSC21263,2.11e5,2.25e5,5.99e5,4.64e5,inactive
CG13364,DRSC26743,7.01e5,6.90e5,1.06e6,9.27e5,inactive
DCTN6-p27,DRSC02609,2.35e5,2.79e5,1.77e6,3.24e6,inactive
DCTN6-p27,DRSC22810,3.12e5,5.94e5,7.31e5,1.27e6,inactive
DCTN6-p27,DRSC29904,3.95e5,2.60e5,1.11e6,1.04e6,inactive
Grx1t,DRSC04530,1.82e5,1.95e5,1.25e6,1.64e6,inactive
Grx1t,DRSC28633,3.21e5,3.11e5,9.93e5,1.33e6,inactive
serp,DRSC11035,2.95e5,2.64e5,2.71e6,3.00e6,inactive
serp,DRSC11036,1.91e5,1.79e5,1.84e6,1.58e6,inactive
t,DRSC17815,4.23e5,4.21e5,3.15e6,3.07e6,inactive
t,DRSC29460,7.53e5,6.08e5,7.80e5,7.80e5,inactive

Called active (from the list above):
gene,DRSC id,"firefly reporter light, replicate 1","firefly reporter light, replicate 2","Renilla control light, replicate 1","Renilla control light, replicate 2",Outcome
hiw,DRSC20338,1.01e5,1.22e5,1.36e6,1.60e6,active
hiw,DRSC20339,1.15e5,1.03e5,3.39e6,3.01e6,active

Next reagents:
gene,DRSC id,"firefly reporter light, replicate 1","firefly reporter light, replicate 2","Renilla control light, replicate 1","Renilla control light, replicate 2",Outcome
mRpL48,DRSC00506,1.02e5,73151,6.67e5,7.33e5,inactive
CG11417,DRSC18581,71259,68235,3.88e5,4.31e5,inactive
Pef,DRSC06695,1.27e6,6.21e5,2.15e6,1.22e6,inactive
CG1789,DRSC18140,1.75e5,1.37e5,6.96e5,6.16e5,inactive
CG1789,DRSC28967,1.23e6,1.19e6,1.46e6,1.27e6,inactive
PIG-Wb,DRSC08526,1.56e5,1.85e5,7.26e5,1.13e6,inactive
CG1695,DRSC20538,2.63e5,1.38e5,5.49e5,3.01e5,inactive
CG1695,DRSC25561,8.95e5,1.02e6,9.26e5,9.75e5,inactive
Mat89Ba,DRSC14540,26098,47323,3.43e5,3.77e5,inactive
Mat89Ba,DRSC29166,3.58e5,4.31e5,9.18e5,1.37e6,inactive
CG33645,DRSC37853,4.63e5,3.73e5,1.01e6,1.33e6,inactive
Wdr82,DRSC02595,3.78e5,3.27e5,3.79e6,2.75e6,inactive
Wdr82,DRSC21723,5.80e5,6.54e5,2.55e6,3.22e6,inactive
wit,DRSC08741,9.74e5,9.22e5,1.62e6,1.35e6,inactive
wit,DRSC26091,2.77e5,4.28e5,5.60e5,8.13e5,active
wit,DRSC37034,,,,,inactive
CG15152,DRSC02453,2.51e5,3.05e5,2.16e6,1.68e6,inactive
UQCR-11,DRSC38687,6.76e5,7.29e5,2.00e6,2.25e6,inactive
AsnRS-m,DRSC07010,56355,2.48e5,9.32e5,9.32e5,inactive
CG2790,DRSC04045,7.33e5,7.21e5,1.07e6,1.17e6,inactive
CG2790,DRSC25882,4.02e5,3.74e5,1.18e6,1.03e6,inactive
CG2790,DRSC38986,6.08e5,7.39e5,1.59e6,1.95e6,inactive
Rat1,DRSC02044,7.77e5,5.29e5,2.28e6,1.50e6,inactive
CG2150,DRSC23444,7.02e5,7.74e5,7.62e5,7.75e5,inactive
trk,DRSC03625,99156,1.25e5,8.59e5,9.24e5,inactive
inaC,DRSC07632,1.17e6,1.02e6,2.19e6,1.75e6,inactive
inaC,DRSC36645,,,,,inactive
inaC,DRSC36646,,,,,inactive
